In PubChem BioAssay AID1487 (National Center for Advancing Translational Sciences (NCATS), 2009):
The other results are listed elsewhere or left out. Further columns of the screen follow, without active or inactive calls. The list favours compounds with an active or inconclusive main result. Words in brackets tell the shape of the fitted curve; partial curves, single points and poor fits give uncertain potencies.

Test: qHTS Assay for Modulators of Lamin A Splicing
Conditions: HeLa LMNA splicing GFP/RFP minigene ratio, 48 h
How it was run: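 S3 HeLa cells stably expressing lamin A-EGFP splicing minigene plus DsRed2, 600 cells/well, 48 h compound exposure at 37C. Laser-scanning cytometry; analysed as GFP (500-530 nm)/RFP (575-640 nm) total intensity ratio; 0.5% DMSO vehicle.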

[1] = measured here: RFP viability control channel
[2] = measured here: GFP splicing reporter channel

Structure (SMILES)	AC50 [1]	AC50 [2]
Cc1ccc(C(=O)Nc2ncc(Cc3ccc(SC(F)F)cc3)s2)cc1	0.708 µM [rising, full curve]	
COc1ccc(OCC(=O)N2CCN(c3nnc(-c4ccccc4)c4ccccc34)CC2)cc1	31.6 µM [rising, single point]	12.6 µM [rising, single point]
O=C(Nc1nc2c(s1)CCCC2)c1ccc(S(=O)(=O)N2CCCc3ccccc32)cc1	7.08 µM [rising, partial curve]	12.6 µM [rising, partial curve]
CSc1nc(Nc2cccc(C)c2)c(C#N)c(-c2ccccc2)n1	10 µM [rising, partial curve, poor fit]	12.6 µM [rising, partial curve]
COc1ccc(CNc2ccnc(-c3ccccc3CN(C)C)n2)c(OC)c1		7.94 µM [falling, partial curve]
Cc1ccc(N2C(=O)C(NC(=O)c3ccccc3F)(C(F)(F)F)C3=C2CC(C)(C)CC3=O)cc1 (configuration not stated)	0.0708 µM [rising, full curve, poor fit]	17.8 µM [rising, partial curve]
O=C(CCS(=O)(=O)c1ccccc1)Nc1nc2c(s1)COc1ccccc1-2	35.5 µM [falling, single point]	35.5 µM [falling, single point]
Cc1cccc(C)c1NC(=O)NC1CC2CCC(C1)N2Cc1cccs1 (configuration not stated)	0.141 µM [rising, full curve, poor fit]	
COCCN=C1Sc2nc3c(C)cccc3cc2CN1Cc1ccco1	25.1 µM [falling, single point]	35.5 µM [falling, single point]
CCCCCCC[N+](CC)(CC)CCCCc1ccc(Cl)cc1	7.08 µM [falling, partial curve, poor fit]	
CC(C)(C)n1ncc2c(=O)n(CC(=O)N3CCCCCC3)cnc21		0.891 µM [falling, partial curve]
CC(OCC(O)CN(C)CCOc1ccccc1)c1ccc(Cl)cc1 (configuration not stated)	0.0112 µM [falling, full curve, poor fit]	
CCCCn1c(=O)[nH]c(=O)c2c1nc(-c1ccc(C)c([N+](=O)[O-])c1)n2CC	25.1 µM [rising, single point]	
CCOC(=O)C1CCN(C(=O)c2ccccc2NC(=O)c2ccc(Br)cc2)CC1	20 µM [rising, single point]	11.2 µM [rising, single point]
N#C/C(=C\c1ccc(-c2cccc([N+](=O)[O-])c2)o1)c1nnc(N2CCOCC2)n1-c1ccccc1	11.2 µM [falling, partial curve]	12.6 µM [falling, partial curve]
COc1ccc(OCCNC(=O)Nc2cc(F)c(F)cc2Cl)cc1	22.4 µM [rising, partial curve, poor fit]	
Cc1ccc(C(=O)Nc2c(C(=O)NC(C)(C)C)oc3ccccc23)cc1	6.31 µM [rising, full curve]	3.55 µM [rising, full curve, poor fit]
O=C1OC(c2cccc([N+](=O)[O-])c2)C2(CCCC2)C(=O)C12CCCCC2 (configuration not stated)	20 µM [rising, single point]	14.1 µM [rising, single point]
CCOC(=O)c1ccc(NC(=O)CSc2c(C(C)C)cnc3c2c(=O)n(C)c(=O)n3C)cc1	14.1 µM [rising, single point]	0.501 µM [rising, full curve, poor fit]
CCNS(=O)(=O)c1ccc(CCC(=O)NCCC2=CCCCC2)cc1		35.5 µM [rising, single point]
Cc1cc(=O)oc2cc(OCCSc3nnc(-c4ccccc4)o3)ccc12	0.126 µM [rising, full curve, poor fit]	
COc1ccc2[nH]c3c(N4CCC(O)(c5cccc(C(F)(F)F)c5)CC4)ncnc3c2c1	35.5 µM [falling, single point]	35.5 µM [falling, single point]
O=C(c1cnn2c(C(F)F)cc(-c3ccccc3)nc12)N1CCc2ccccc2C1	3.98 µM [falling, full curve]	
COc1ccc(N(C(=O)c2cccc([N+](=O)[O-])c2)S(=O)(=O)c2cccs2)cc1		0.891 µM [rising, full curve, poor fit]
CC(C(=O)NC1CCCC1)N(Cc1ccco1)C(=O)c1snc(C(=O)NC2CCCC2)c1N (configuration not stated)	17.8 µM [rising, single point]	

Of the compounds above, these have an aryl thioether with sulfur outside any ring.
Structure (SMILES)	AC50 [1]	AC50 [2]
Cc1ccc(C(=O)Nc2ncc(Cc3ccc(SC(F)F)cc3)s2)cc1	0.708 µM [rising, full curve]	
CSc1nc(Nc2cccc(C)c2)c(C#N)c(-c2ccccc2)n1	10 µM [rising, partial curve, poor fit]	12.6 µM [rising, partial curve]
CCOC(=O)c1ccc(NC(=O)CSc2c(C(C)C)cnc3c2c(=O)n(C)c(=O)n3C)cc1	14.1 µM [rising, single point]	0.501 µM [rising, full curve, poor fit]
Cc1cc(=O)oc2cc(OCCSc3nnc(-c4ccccc4)o3)ccc12	0.126 µM [rising, full curve, poor fit]	
